Test [1] concerns the target T1, human fibulin-3 (human, UniProt Q12805 18-493, limits assumed).
T1 construct: Purified human fibulin-3 in Western blot, dot blot and BIACORE (there pretreated with 10 mM DTT to dissociate multimers); The same entry is used for fibulin-3 secreted by transfected CNS1 cells and for native fibulin-3 in human tissue sections; also called Fib3; EFEMP1 gene product
T1 sequence (looked up): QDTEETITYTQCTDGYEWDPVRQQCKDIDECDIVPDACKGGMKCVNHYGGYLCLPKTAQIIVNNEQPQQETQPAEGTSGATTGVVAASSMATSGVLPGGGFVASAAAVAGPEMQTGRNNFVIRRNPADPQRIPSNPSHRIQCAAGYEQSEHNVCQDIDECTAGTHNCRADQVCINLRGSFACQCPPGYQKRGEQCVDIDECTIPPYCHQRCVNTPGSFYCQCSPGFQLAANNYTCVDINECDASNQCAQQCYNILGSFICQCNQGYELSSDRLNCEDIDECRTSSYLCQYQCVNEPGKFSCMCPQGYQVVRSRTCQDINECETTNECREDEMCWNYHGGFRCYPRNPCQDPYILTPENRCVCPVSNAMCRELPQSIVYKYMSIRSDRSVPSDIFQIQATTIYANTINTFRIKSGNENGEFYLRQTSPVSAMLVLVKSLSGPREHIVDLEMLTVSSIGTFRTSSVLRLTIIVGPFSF
Kind of test: Western blot of purified human fibulin-3 resolved in non-reducing conditions, probed with concentrated medium of transfected HEK293 cells (1 mg/ml total protein), detected with anti-human IgG. Background: A western blot detects proteins with antibodies after separation by electrophoresis.

The target in test [2] is T1, human fibulin-3. Kind of test: Western blot of purified human fibulin-3 (non-reducing), HEK293 medium 1 mg/ml total protein.

Results are given in words; binding and its absence hold for the method and conditions named. Some results given as binding are weak or reduced against the parent protein; the word gives no strength.

B1: semi-humanized mAb428.2 (antibody, V domains shown)
VH: QIQLVQSGPELKKPGETVKISCKASGYSFTTYGMSWVKQAPGKGLKWMGWINTHSGVPTYADDFKGRFAFFLETSASTAYLQINNLKNEDTATYFCARWVDYWGQGTTLTVSS
VL: DIKMTQSPSSMYASLGERVTITCKASQDIKSYLSWHQQKPWKSPKTLIYYATSLADGVPSRFSGSGSGQDYSLTISSLESDDTATYYCLQHGKSPYTFGGGTKLEIKG
Consider B1, for which the binding entry in the test with human fibulin-3 [1] and with human fibulin-3 [2] was “binds” throughout.
